Values joined by “and” are separate entries in the source; they are usually repeats but may differ in a detail not shown here. Equal values may be shown once. Where a name gives a salt, the structure may show the parent alone. ± gives the standard deviation of the averaged measurements. This is one part of the list. Most values come without repeats; read them as rough.
System: RAW 264.7
Test: HMGB1-induced TNF-alpha production relative to HMGB1-stimulated control; higher = more TNF-alpha secretion (less inhibition)
Settings: stimulus: HMGB1 5 ug/ml, 18 h
[1] = compound concentration: 1 ug/ml

Row | SMILES | HMGB1-induced TNF-alpha production (compound concentration: 3 uM) | HMGB1-induced TNF-alpha production [1] [%]
1 | CN(C)CCCOc1nn(Cc2ccccc2)c2ccccc12 [Benzydamine hydrochloride] | 75.9% | 
2 | CN(C)CCCOc1nn(Cc2ccccc2)c2ccccc12 [Benzydamine] | 75.2% | 
3 | CN(C)CCCOc1nn(Cc2ccccc2)c2ccccc12 | 70.4% | 
4 | Nc1ccc(S(=O)(=O)Nc2ccc(Cl)nn2)cc1 | 74.8% | 
5 | Nc1ccc(S(=O)(=O)Nc2ccc(Cl)nn2)cc1 [Sulfachloropyridazine] | 93.5% | 
6 | CC1CCN=C(N)S1 (racemic) [(±)-AMT hydrochloride] | 93.3% | 
7 | C[C@H]1C[C@H]2[C@@H]3CCC4=CC(=O)C=C[C@]4(C)[C@@]3(Cl)[C@@H](O)C[C@]2(C)[C@@]1(O)C(=O)CO [Beclomethasone] | 50.4 ± 5.3% | 
8 | Oc1ccc(O)cc1 | 51.8% | 
9 | Oc1ccc(O)cc1 [Hydroquinone] | 51.3% | 
10 | COc1cc2nc(N3CCN(C(=O)C4CCCO4)CC3)nc(N)c2cc1OC (stereo unspecified) [Terazosin] | 94.8 ± 4.8% | 
11 | COc1cc2nc(N3CCN(C(=O)C4CCCO4)CC3)nc(N)c2cc1OC (stereo unspecified) | 92.8% | 
12 | COc1cc2nc(N3CCN(C(=O)C4CCCO4)CC3)nc(N)c2cc1OC (stereo unspecified) [Terazosin hydrochloride] | 102 ± 16% | 
13 | CC1CCC(NC(=O)N(CCCl)N=O)CC1 (stereo unspecified) | 85.5 ± 3.2% | 
14 | Cc1nc(N=Nc2ccc(C(=O)O)cc2)c(COP(=O)(O)O)c(C=O)c1O | 109% | 
15 | CNCCC=C1c2ccccc2CCc2ccccc21 [Nortriptyline hydrochloride] | 75.8 ± 17% | 
16 | CNCCC=C1c2ccccc2CCc2ccccc21 | 87.5% | 
17 | C[C@H]1[C@H](NC(=O)/C(=N\OC(C)(C)C(=O)O)c2csc(N)n2)C(=O)N1S(=O)(=O)O | 85 ± 12% | 
18 | C[C@H]1[C@H](NC(=O)/C(=N\OC(C)(C)C(=O)O)c2csc(N)n2)C(=O)N1S(=O)(=O)O [Aztreonam] | 92.1 ± 2.1% | 
19 | CCc1c2c(nc3ccc(OC(=O)N4CCC(N5CCCCC5)CC4)cc13)-c1cc3c(c(=O)n1C2)COC(=O)[C@]3(O)CC [IRINOTECAN HCl )trihydrate)] | 97.8% | 
20 | CCc1c2c(nc3ccc(OC(=O)N4CCC(N5CCCCC5)CC4)cc13)-c1cc3c(c(=O)n1C2)COC(=O)[C@]3(O)CC [Irinotecan Hydrochloride] | 96.7% | 
21 | C=CCN1CCc2c(cc(O)c(O)c2Cl)C(c2ccccc2)C1 (racemic) [(±)-Chloro-APB hydrobromide] | 105% | 
22 | Cc1ccc(/C(=C\CN2CCCC2)c2ccccn2)cc1 | 81.6% | 
23 | Cc1ccc(/C(=C\CN2CCCC2)c2ccccn2)cc1 [Triprolidine hydrochloride] | 88.9 ± 17% | 
24 | C=C1/C(=C\C=C2/CCC[C@]3(C)[C@@H]([C@H](C)CCCC(C)(C)O)CC[C@@H]23)C[C@@H](O)C[C@@H]1O | 93% | 

Single records, from the list above.
COc1cc2nc(N3CCN(C(=O)C4CCCO4)CC3)nc(N)c2cc1OC (stereo unspecified) [Terazosin hydrochloride] is listed with HMGB1-induced TNF-alpha production (compound concentration: 3 uM): 102 ± 16%
Cc1ccc(/C(=C\CN2CCCC2)c2ccccn2)cc1 [Triprolidine hydrochloride] is listed with HMGB1-induced TNF-alpha production (compound concentration: 3 uM): 88.9 ± 17%

Continuation.

Row | SMILES | HMGB1-induced TNF-alpha production (compound concentration: 3 uM) | HMGB1-induced TNF-alpha production [1] [%]
25 | C=C1/C(=C\C=C2/CCC[C@]3(C)[C@@H]([C@H](C)CCCC(C)(C)O)CC[C@@H]23)C[C@@H](O)C[C@@H]1O [Calcitriol] | 81.1% | 
26 | CC(C)(O/N=C(\C(=O)N[C@@H]1C(=O)N2C(C(=O)[O-])=C(C[n+]3ccccc3)CS[C@H]12)c1csc(N)n1)C(=O)O [Ceftazidime pentahydrate] | 65% | 
27 | CC(C)(O/N=C(\C(=O)N[C@@H]1C(=O)N2C(C(=O)[O-])=C(C[n+]3ccccc3)CS[C@H]12)c1csc(N)n1)C(=O)O | 86.8% | 
28 | CC(C)(O/N=C(\C(=O)N[C@@H]1C(=O)N2C(C(=O)[O-])=C(C[n+]3ccccc3)CS[C@H]12)c1csc(N)n1)C(=O)O [Ceftazidime] | 91.8% | 
29 | Cc1c(Cl)cccc1Nc1ncccc1C(=O)O [Clonixin Lysinate] | 128% | 
30 | O=c1onc2n1-c1cc(Br)ccc1OC2 | 114% | 
31 | CN1CCN(C(c2ccccc2)c2ccc(Cl)cc2)CC1 (stereo unspecified) [Chlorcyclizine hydrochloride] | 95% | 
32 | CN1CCN(C(c2ccccc2)c2ccc(Cl)cc2)CC1 (stereo unspecified) | 79.1% | 
33 | Nc1ncnc2c1ncn2[C@@H]1O[C@H](COP(=O)(O)CP(=O)(O)OP(=O)(O)O)[C@H](O)C1O (stereo partly drawn) [alpha,beta-Methylene adenosine 5'-triphosphate dilithium] | 112% | 
34 | O=C(N/N=C/c1ccc([N+](=O)[O-])o1)c1ccc(O)cc1 [Nifuroxazide] | 69.6% | 
35 | O=C(N/N=C/c1ccc([N+](=O)[O-])o1)c1ccc(O)cc1 | 62.7% | 
36 | O=C1C=CC(=O)c2c1ccc1c2ccc2ccccc21 [Chrysene-1,4-quinone] | 102% | 
37 | NC(=O)c1ncn([C@@H]2O[C@H](CO)[C@@H](O)[C@H]2O)c1O [Mizoribine] | 109% | 
38 | NC(=O)c1ncn([C@@H]2O[C@H](CO)[C@@H](O)[C@H]2O)c1O | 72.6% | 
39 | CC(=O)Nc1ccc(S(=O)(=O)Nc2ccc([N+](=O)[O-])cc2)cc1 | 86.5% | 
40 | CCC(=O)[C@@]1(C)[C@H](C)C[C@H]2[C@@H]3CCC4=CC(=O)C=C[C@]4(C)[C@H]3[C@@H](O)C[C@@]21C [Rimexolone] | 40.4% | 
41 | Cc1ccc(C(=O)Nc2ccc(S(=O)(=O)O)c3cc(S(=O)(=O)O)cc(S(=O)(=O)O)c23)cc1NC(=O)c1cccc(NC(=O)Nc2cccc(C(=O)Nc3cc(C(=O)Nc4ccc(S(=O)(=O)O)c5cc(S(=O)(=O)O)cc(S(=O)(=O)O)c45)ccc3C)c2)c1 | 107 ± 7.7% | 
42 | Cc1ccc(C(=O)Nc2ccc(S(=O)(=O)O)c3cc(S(=O)(=O)O)cc(S(=O)(=O)O)c23)cc1NC(=O)c1cccc(NC(=O)Nc2cccc(C(=O)Nc3cc(C(=O)Nc4ccc(S(=O)(=O)O)c5cc(S(=O)(=O)O)cc(S(=O)(=O)O)c45)ccc3C)c2)c1 [Suramin] | 93.1% | 
43 | Cc1ccc(C(=O)Nc2ccc(S(=O)(=O)O)c3cc(S(=O)(=O)O)cc(S(=O)(=O)O)c23)cc1NC(=O)c1cccc(NC(=O)Nc2cccc(C(=O)Nc3cc(C(=O)Nc4ccc(S(=O)(=O)O)c5cc(S(=O)(=O)O)cc(S(=O)(=O)O)c45)ccc3C)c2)c1 [Suramin sodium salt] | 91.6% | 
44 | CCc1cc(C(N)=S)ccn1 [Ethionamide] | 65.8% | 
45 | CCc1cc(C(N)=S)ccn1 | 89.6% | 
46 | CC(=O)Nc1c(I)c(NC(C)=O)c(I)c(C(=O)O)c1I | 88% | 
47 | Nc1ncnc2c1ncn2[C@@H]1O[C@H](COC(=O)CCC(=O)O)[C@@H](O)[C@H]1O [Adenosine 5'-succinate] |  | 62.3
48 | CC(=O)N[C@H]1[C@H]([C@H](O)[C@H](O)CO)OC(C(=O)O)=C[C@@H]1O [N-Acetyl-2,3-dehydro-2-deoxyneuraminic acid] | 86% | 

Reprinted at random: two entries already listed
Row | SMILES | HMGB1-induced TNF-alpha production (compound concentration: 3 uM) | HMGB1-induced TNF-alpha production [1] [%]
23 | Cc1ccc(/C(=C\CN2CCCC2)c2ccccn2)cc1 [Triprolidine hydrochloride] | 88.9 ± 17% | 
35 | O=C(N/N=C/c1ccc([N+](=O)[O-])o1)c1ccc(O)cc1 | 62.7% | 

Following part:

Row | SMILES | HMGB1-induced TNF-alpha production (compound concentration: 3 uM) | HMGB1-induced TNF-alpha production [1] [%]
49 | Cn1cc(C2=C(c3ccc(Cl)cc3Cl)C(=O)NC2=O)c2ccccc21 | 112% | 
50 | CN(N=O)C(=O)N[C@@H](C=O)[C@@H](O)[C@H](O)[C@H](O)CO [Streptozotocin] | 105% | 
51 | CCCCCCCCCCC(C)(C)C(=O)Nc1c(OC)cc(OC)cc1OC | 104% | 
52 | CN=C(N)NCCC[C@H](N)C(=O)O [L-Ornithine, N5-[imino(methylamino)methyl]-[CAS]] | 102% | 
53 | CCn1cc(C(=O)O)c(=O)c2cc(F)c(N3CCN(C)CC3)cc21 [Pefloxacine] | 76.5 ± 11% | 
54 | CCn1cc(C(=O)O)c(=O)c2cc(F)c(N3CCN(C)CC3)cc21 | 105% and 93.6% | 
55 | CC[C@]12CCCN3CCc4c(n(c5ccccc45)C(=O)C1)[C@@H]32 [Eburnamonine (-)] | 110% | 
56 | CC[C@]12CCCN3CCc4c(n(c5ccccc45)C(=O)C1)[C@@H]32 | 76.3% | 
57 | O=C([O-])CC(O)(CC(=O)[O-])C(=O)[O-].[Fe+3] [Ferric citrate] |  | 78.6
58 | CC#CCOC(=O)c1c(C)nc2sc3c(c2c1N)CCC(O)C3 (stereo unspecified) | 113% | 
59 | Cc1ccc(S(=O)(=O)NCl)cc1 | 90.4% | 
60 | O[C@H]1[C@H](O)[C@@H](O)[C@@H]2O[C@@H]2[C@@H]1O (racemic) [Conduritol B epoxide] | 85.2% | 
61 | C[C@@H]1CN(c2c(F)c(N)c3c(=O)c(C(=O)O)cn(C4CC4)c3c2F)C[C@H](C)N1 [Sparfloxacin] | 77.2 ± 8.1% | 
62 | C[C@@H]1O[C@@H]1P(=O)(O)O | 101% | 
63 | C[C@@H]1O[C@@H]1P(=O)(O)O [Phosphomycin disodium] | 103% | 
64 | Cn1c(=O)c2[nH]c(-c3ccc(S(=O)(=O)O)cc3)nc2n(C)c1=O [8-(p-Sulfophenyl)theophylline] | 94.2% | 
65 | CN1CCN(C2=Nc3ccccc3Sc3ccc(Cl)cc32)CC1 [Clothiapine] | 74.6% | 
66 | COc1ccc2oc(-c3ccc(O)cc3)cc(=O)c2c1 |  | 44.7
67 | CCOC(=O)CCC(=O)O[C@H]1[C@H](O[C@@H]2[C@@H](C)[C@H](O[C@H]3C[C@@](C)(OC)[C@@H](O)[C@H](C)O3)[C@@H](C)C(=O)O[C@H](CC)[C@@](C)(O)[C@H](O)[C@@H](C)C(=O)[C@H](C)C[C@@]2(C)O)O[C@H](C)C[C@@H]1N(C)C | 80.5% | 
68 | CCOC(=O)CCC(=O)O[C@H]1[C@H](O[C@@H]2[C@@H](C)[C@H](O[C@H]3C[C@@](C)(OC)[C@@H](O)[C@H](C)O3)[C@@H](C)C(=O)O[C@H](CC)[C@@](C)(O)[C@H](O)[C@@H](C)C(=O)[C@H](C)C[C@@]2(C)O)O[C@H](C)C[C@@H]1N(C)C [erythromycin ethylsuccinate] |  | 83.3
69 | Nc1ncnc2nc(-c3ccc(N4CCOCC4)nc3)cc(-c3cccc(Br)c3)c12 [ABT-702 dihydrochloride] | 118% | 
70 | C[C@]12C=CC(=O)C=C1CC[C@@H]1[C@@H]2C(=O)C[C@@]2(C)[C@H]1CC[C@]2(O)C(=O)CO | 74.9% | 
71 | C[C@]12C=CC(=O)C=C1CC[C@@H]1[C@@H]2C(=O)C[C@@]2(C)[C@H]1CC[C@]2(O)C(=O)CO [Prednisone] | 85 ± 8.9% | 

From the supplement of paper PMC3682954
